{
  "source": "patent US12527876B2",
  "about": "“Insulin-like growth factor-chemotherapeutic conjugate for treating myelodysplastic syndrome” (IGF Oncology, LLC, priority 2017, dated 2026)",
  "origin": "cited, not measured here",
  "test_system": "MDS",
  "settings": "multicenter phase III study; cited from earlier work",
  "note": "At least one compound was matched to its structure with a doubt left.",
  "data": [
    {"compound": "Nc1ncn([C@H]2C[C@H](O)[C@@H](CO)O2)c(=O)n1", "note": "[Decitabine, decitabine]", "values": [
      {"measurement": "complete and partial remission rate", "result": 17, "unit": "%"},
      {"measurement": "patients with responses", "result": 30, "unit": "%"}
    ]}
  ]
}
